# Test results reported in PubChem BioAssay AID493014 (National Center for Advancing Translational Sciences (NCATS), 2011).
# Some of the results follow. Shown are side measurements of this screen, not its main read-out; they come without a call. Compounds called inactive in the main read-out are mostly missing here. Words in brackets tell the shape of the fitted curve; partial curves, single points and poor fits give uncertain potencies.
# Experiment: qHTS Assay to Find Inhibitors of Chronic Active B-Cell Receptor Signaling
# Conditions: ABC-DLBCL IkBa-CBG/CBR reporter, luminescence ratio (green luciferase fused to IkBa over red control in TMD8 lymphoma cells), 4 h
# Outline: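 Concentration-response series (up to 46 uM) were applied to TMD8 dual-reporter cells for 4 h at 37C with doxycycline. Green/red ratio, after filter-overlap correction, defined %Activity; red signal alone was normalised to basal cells and zero luminescence.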
# [1] = measured here: CBR red luminescence, cell number
# [2] = measured here: IkBa-CBG green luminescence
smiles,measurement,setting,value
C[C@@]12C(=O)Nc3ccc(Cl)cc3C(=O)N1[C@H]1c3cc(Cl)ccc3OC[C@@H]1[C@@H]2c1ccccc1,AC50,[1],"29.1 µM [falling, single point]"
O=C(Nc1ccccc1)N1CCC(c2ccccc2)C1 (centres undefined),AC50,[1],"8.91 µM [falling, partial curve]"
O=C(/C=C/N1CCN(Cc2ccccc2)CC1)C(F)(F)F,AC50,[1],"25.1 µM [rising, single point]"
Clc1ccc(Oc2ccccc2)c2ncccc12,AC50,[1],"3.98 µM [rising, partial curve, poor fit]"
COc1ccc(CNC(=O)c2cncc(Br)c2)cc1,AC50,[1],"11.2 µM [rising, single point]"
CCN(CC)S(=O)(=O)c1ccc2c(c1)nc(SCC(N)=O)n2-c1ccc(OC)cc1,AC50,[1],"3.26 µM [rising, partial curve, poor fit]"
CCN(CC)c1ccc(/C=C(/C#N)C(=O)NC(C)C)o1,AC50,[1],"2.82 µM [rising, partial curve, poor fit]"
O=C(/C=C/c1ccc2c(c1)OCO2)c1ccc[nH]1,AC50,[1],"20.6 µM [falling, single point]"
CCOc1ccc(S(=O)(=O)NN)cc1,AC50,[1],"0.146 µM [rising, full curve, poor fit]"
CC1CCCCN1CC(=O)Nc1sc2c(c1C#N)CCC2 (centres undefined),AC50,[1],"3.55 µM [rising, single point]"
COc1ccc2oc(C(=O)N3CCc4ccccc43)c(C)c2c1,AC50,[1],"5.62 µM [falling, single point]"
Cc1ccccc1C(=O)Nc1ccc(S(=O)(=O)N2CCN(C)CC2)cc1,AC50,[1],"18.4 µM [rising, single point]"
CCc1nc(N=C(N)N)nc2ccccc12,AC50,[1],"14.1 µM [falling, single point]"
CC(C)Cc1nc(C#N)c(N2CCC(C(N)=O)CC2)o1,AC50,[1],"0.92 µM [rising, partial curve, poor fit]"
COc1ccc(C(=O)Nc2c(-c3cccs3)c(=O)c3ccccc3n2C)cc1,AC50,[1],"20 µM [rising, partial curve, poor fit]"
O=C(Nc1nc2ccc([N+](=O)[O-])cc2s1)c1ccncc1,AC50,[1],"1 µM [falling, full curve]"
C=CCNC(=S)N/N=C(\C)c1ccccn1,AC50,[2],"7.31 µM [falling, partial curve, poor fit]"
Cc1cc(C(=O)NC2CCCc3ccccc32)ccc1[N+](=O)[O-] (centres undefined),AC50,[1],"35.5 µM [falling, single point]"
Cc1ccccc1N1CCN(c2ncnc3c2cnn3Cc2ccc(Cl)cc2)CC1,AC50,[1],"0.517 µM [falling, full curve, poor fit]"
CC(C)(C)OC(=O)N1CCC(CNC(=O)Nc2ccccc2)CC1,AC50,[1],"3.55 µM [rising, single point]"
CS(=O)(=O)Cc1ccc(C(=O)Nc2cccc(-c3nc4ccccc4[nH]3)c2)cc1,AC50,[1],"10 µM [falling, partial curve, poor fit]"
COCCn1c(=N)c(C(=O)NCCc2ccc(OC)cc2)cc2c(=O)n3cccc(C)c3nc21,AC50,[1],"0.631 µM [rising, partial curve, poor fit]"
Cc1ccc2[nH]cc(CCNC(=O)c3ccco3)c2c1,AC50,[1],"3.98 µM [rising, full curve, poor fit]"
COc1ccc(C2(CNC(=O)CCC(=O)O)CCCC2)cc1OC,AC50,[1],"23.1 µM [rising, single point]"
NC(=S)N/N=C/c1ccc(-c2ccc([N+](=O)[O-])cc2)o1,AC50,[1],"35.5 µM [rising, single point]"
same,AC50,[2],"14.1 µM [falling, single point]"
Cc1ccc(NC(=S)Nc2ccc(C(C)C)cc2)cc1S(=O)(=O)N1CCCCCC1,AC50,[1],"25.9 µM [falling, partial curve, poor fit]"
CCOc1cc(C(=O)N2CCC(c3ccncc3)CC2)cc(OCC)c1OCC,AC50,[1],"35.5 µM [falling, single point]"
O=C(CSCc1c(F)cccc1Cl)NCCc1ccccc1,AC50,[1],"7.08 µM [rising, full curve]"
Cc1nn(Cc2ccc(C(=O)Nc3nccs3)cc2)c(C)c1Cl,AC50,[1],"1.41 µM [falling, full curve]"
CC(C)(C)c1cc(C(=O)NNS(=O)(=O)c2ccccc2)n[nH]1,AC50,[1],"2.82 µM [falling, single point]"
Cc1nc2ccccc2c(=O)n1/N=C/c1cn[nH]c1-c1ccccc1,AC50,[1],"0.891 µM [falling, full curve]"
O=C(CSc1nnc(CNc2ccc(Cl)cc2)o1)Nc1nc2ccccc2s1,AC50,[1],"0.1 µM [rising, full curve, poor fit]"
O=C(CSCc1cccc(Br)c1)N/N=C/c1ccc2c(c1)OCO2,AC50,[1],"14.1 µM [falling, partial curve, poor fit]"
CCNC(=S)N1CCc2cc(OC)c(OC)cc2C1COc1ccccc1OC (centres undefined),AC50,[1],"0.891 µM [rising, full curve, poor fit]"
C=CCn1c(CCNC(=O)c2ccccc2F)nnc1SCC(=O)Nc1nc(C)cs1,AC50,[1],"29.1 µM [falling, single point]"
O=C1/C(=C/c2ccsc2)N2CCC1CC2,AC50,[1],"5.62 µM [rising, single point]"
COc1ccc2c(c1OC)C(=O)N1N=C(c3ccccc3)CC21 (centres undefined),AC50,[1],"13 µM [falling, partial curve, poor fit]"
CCOc1ccccc1C1C2=C(COC2=O)Nc2cc3c(cc21)OCO3 (centres undefined),AC50,[1],"3.55 µM [rising, full curve, poor fit]"
same,AC50,[2],"7.08 µM [falling, partial curve]"
COCCNC(=S)N=Nc1c(O)[nH]c2ccc([N+](=O)[O-])cc12,AC50,[1],"6.31 µM [rising, single point]"
CCc1ccc2nc(NC(=O)C3CCN(c4ncnc5sc(C)c(C)c45)CC3)sc2c1,AC50,[1],"0.58 µM [rising, full curve, poor fit]"
CCCCNCCOCCSc1ccc(Cl)cc1,AC50,[1],"12.6 µM [falling, single point]"
CC(C)N(CCC(=O)c1ccc2ccccc2c1)Cc1ccccc1,AC50,[1],"13 µM [falling, partial curve]"

# Shown with bars between the fields: part of the list above.
smiles | measurement | setting | value
COc1ccc(C2(CNC(=O)CCC(=O)O)CCCC2)cc1OC | AC50 | [1] | 23.1 µM [rising, single point]
O=C(CSCc1c(F)cccc1Cl)NCCc1ccccc1 | AC50 | [1] | 7.08 µM [rising, full curve]
